Values of other authors, collected in patent publication US12186320B2, “Therapeutic agent containing pyrazolo[3,4-d]pyrimidine compound as active ingredient” (TAIHO PHARMACEUTICAL CO., LTD., priority 2018, dated 2025).
For at least one compound, name, drawing or mass did not settle the structure.

System: Champions Tumor Graft models CTG-1171
Conditions: single agents; Nab-paclitaxel 0.5 mg/kg/day once a week for 3 weeks i.v.; Temsirolimus 0.5 once a week for 5 weeks i.p.; Trastuzumab 15 once a week for 8 weeks i.v.; Afatinib dose not given; cited from earlier work

CN(C)C/C=C/C(=O)Nc1cc2c(Nc3ccc(F)c(Cl)c3)ncnc2cc1O[C@H]1CCOC1 [Afatinib]
TGI (%): 123%
